Molecules are shown by their SMILES.

The nature of the data set: Control assays of compound interference on DTNB/thiolate detection. Conditions: 415 nm, 30 min.

As to `O=c1oc2cc(OCCN3CCCCC3)ccc2cc1-c1cn(-c2ccccc2)nn1` [Compound 1a, 3-(1-Phenyl-1H-1,2,3-triazol-4-yl)-7-(2-(piperidin-1-yl)ethoxy)-2H-chromen-2-one], the “% Interference” value by setting is: (compound + DTNB + ACTI) 2.77%; (compound + DTNB) 0.31%; (compound alone) 0.06%.
`O=c1oc2cc(OCCN3CCCCC3)ccc2cc1-c1cn(Cc2ccccc2)nn1` [Compound 1h, 3-(1-Benzyl-1H-1,2,3-triazol-4-yl)-7-(2-(piperidin-1-yl)ethoxy)-2H-chromen-2-one]: the “% Interference” value (compound + DTNB + ACTI) came out at 2.34%, the “% Interference” value (compound + DTNB) is 0.31% and the “% Interference” value (compound alone) is on record as 0.06%.

For the origin of these results see PMC12472947 (Pharmaceuticals, 2025).
